Results from one PubChem assay

Source: PubChem BioAssay AID1159506 (NCATS, 2015).

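Luminescence from an EWS-FLI1 target-promoter (NR0B1) reporter, set against a CMV-promoter reporter, two days after silencing single genes in TC32 Ewing sarcoma cells. Each siRNA was applied at 20 nM. A z-score of the log NR0B1-over-CMV signal, less the median of siRNAs with the same seed; more negative means a stronger specific loss of the NR0B1 reporter.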

This is part of the screen; most of the strongest results are not listed here. Sequences are the guide (antisense) strand, without overhang.

| Sequence | gene | seed-corrected z-score |
|---|---|---|
| `AAGAAGGACGUAUAGAGGC` | SLC26A1 | -0.1116 |
| `AGAGCAAUUGGGUUAAUGC` | EDNRB | -0.8241 |
| `UGACGAUAGAGGUUAGUGC` | ZNF530 | 0.8326 |
| `UUUGGGACCUCCGCAUCCA` | TMEM223 | 0.3173 |
| `UCUAUGAUGACUGAGAAUG` | ATP8A2 | 0.2159 |
| `UGAUGUUCUGGGCAAAGCC` | OBSCN | -1.589 |
| `UUUCAGUAGACAUAAGAUU` | NUDT19 | 0.4382 |
| `AAUCUGACCUGCUUGAGUC` | TFG | 0.1974 |
| `UGAAGAAGCGGAUAUAAGC` | UBTFL3 | 0.4063 |
| `UAUGUGGAACCGACGACUG` | EREG | 0.7634 |
| `UCUGUUAUCUUUCACGUGC` | SLFN12L | 0.6345 |
| `ACAUGUACCAGACCAUUCC` | SLC17A6 | 0.4169 |
| `UCACAUCAUAGAACAACUC` | PDILT | 0.2486 |
| `UAACGGUUGAUAGCGAUUG` | GPR50 | -0.4829 |
| `UCAGCUACCAGCAGGGUCU` | RPS16P1 | 0.357 |
| `UGAAAACGCAGAUCAGUCU` | HIST1H3D | 0.03835 |
| `ACAGAAGUAAGAACUGGGC` | MRPL2 | 0.7156 |
| `AAACAUUUUCAUGUAGGUG` | LOC729978 | 0.9724 |
| `UCCUUCACAGCAAAUUUCC` | RPL31P45 | 0.6321 |
| `UAUGAUUGAAGAUCUUUCC` | ZNF597 | 0.2644 |
| `UUCUUCGAAAUUCAUUUAC` | PIK3CB | 0.006078 |
| `CUCCAGAUCAUUCUGUCAC` | KRTAP12-2 | 0.4304 |
| `UUGCGGACAACGUAACUAC` | TCN1 | 0.9839 |
| `UGCUCUAUAAGUAAGGCUG` | WDR35 | -0.2636 |
| `UCCUUUAGAGUAACGAUUC` | CLCN2 | 0.4099 |
| `UGGUGUAACAGGACGUGCC` | LMO4 | -1.277 |
| `UUGGUUCUUACUGAUUGGG` | CEACAM1 | 0.3257 |
| `AUGGGAUCCACCGCUUUGU` | CNTNAP3 | -1.355 |
| `UUAUGUGACGAGGAGAUCC` | PLCG2 | -0.3294 |
| `UCUCAUGAUAAUCCUAUUG` | MRS2 | 0.9148 |
| `UUCCUUCUGCAUAAUCUCU` | CCDC163P | -0.4595 |
| `UUCUUGACGAAGUCCAGCG` | KCNC4 | -1.332 |
| `UAAUUAGCAGGUAUAGAUC` | RAPGEFL1 | -0.04652 |
| `UGCGGAAAUAAUCCUCUCC` | SDR9C7 | 0.01215 |
| `UAUAGGUGAUACAUCUUGU` | ZNF226 | -0.5883 |
| `AACUCUAAUAUGGUGGAGG` | ADIG | 1.402 |
| `UAUUUGUCUGAUCAAAGGC` | QKI | -0.3399 |
| `UUUGUGACACGGAGGAACU` | SURF4 | -0.4803 |
| `UCACGGUCAAGUUGUGCUU` | USP20 | -1.11 |
| `UGUUUCACUAGAUGUAGGC` | PHF20L1 | -1.252 |
| `UAACAUAAUCUGCAUGACC` | TUFM | -0.3945 |
| `ACACUGUCAACAACUUUAC` | AKTIP | -0.8357 |
| `AUACUAGUAAAGUUUUGCC` | THOC7 | 0.1136 |
| `UUCUAUGUCAUCAUGGAUC` | TFDP2 | -0.8442 |
| `UCAGGGCUCAGAAUCGUGG` | ERP29 | -1.262 |
| `UUUCUUUUCACCGGGUUUC` | VARS2 | 0.06113 |
| `AUAGUUUGUAGUAGAACUG` | ERVW-1 | 0.7916 |
| `UCGGAUGUCAUGUACCAGC` | GGT7 | 0.08873 |
| `UCUGUUGAGAAGUUGAACC` | GGT5 | 0.6231 |
| `UUUACGAGCUUGUUCCUGC` | FSD1L | 0.86 |

Repeated from the top, 6 entries:

Result for AAGAAGGACGUAUAGAGGC against SLC26A1 was seed-corrected z-score -0.1116.
Result for AGAGCAAUUGGGUUAAUGC against EDNRB was seed-corrected z-score -0.8241.
Result for UGACGAUAGAGGUUAGUGC against ZNF530 was seed-corrected z-score 0.8326.
Result for UUUGGGACCUCCGCAUCCA against TMEM223 was seed-corrected z-score 0.3173.
Result for UCUAUGAUGACUGAGAAUG against ATP8A2 was seed-corrected z-score 0.2159.
Result for UGAUGUUCUGGGCAAAGCC against OBSCN was seed-corrected z-score -1.589.